## Primary screen of a compound library

Protein sequences, listed by entry. Tags and fused reporters are not part of them.
UniProt E9BF75, entry or part of it: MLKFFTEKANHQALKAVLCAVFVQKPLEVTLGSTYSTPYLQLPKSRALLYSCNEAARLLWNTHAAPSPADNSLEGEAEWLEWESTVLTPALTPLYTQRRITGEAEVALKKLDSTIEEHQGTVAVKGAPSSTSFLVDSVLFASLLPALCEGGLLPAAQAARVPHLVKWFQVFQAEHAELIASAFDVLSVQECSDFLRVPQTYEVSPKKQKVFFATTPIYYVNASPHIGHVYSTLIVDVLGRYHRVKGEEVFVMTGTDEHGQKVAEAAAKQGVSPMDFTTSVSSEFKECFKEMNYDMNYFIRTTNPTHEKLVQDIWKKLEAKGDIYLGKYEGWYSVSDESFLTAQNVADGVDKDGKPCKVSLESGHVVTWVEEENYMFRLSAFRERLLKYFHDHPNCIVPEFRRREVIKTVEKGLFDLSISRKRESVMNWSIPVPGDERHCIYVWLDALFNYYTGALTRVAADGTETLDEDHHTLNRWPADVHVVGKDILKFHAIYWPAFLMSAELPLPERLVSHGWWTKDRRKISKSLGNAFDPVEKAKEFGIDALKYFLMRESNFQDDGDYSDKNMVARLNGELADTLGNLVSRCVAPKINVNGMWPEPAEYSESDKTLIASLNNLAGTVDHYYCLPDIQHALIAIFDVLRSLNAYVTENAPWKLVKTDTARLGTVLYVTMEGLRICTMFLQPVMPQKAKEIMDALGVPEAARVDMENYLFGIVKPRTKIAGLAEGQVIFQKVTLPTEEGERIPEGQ

All values are in %.
How 0% and 100% were set is not recorded. Most values in the screen are low, and negative values occur.
This is an unselected part of the compounds tested.
A dash means the value is not listed here; it may have been measured.

A: 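Assay on Mycobacterium tuberculosis, filed only as a heat shock assay from Cornell; the read-out is not stated. The concentration is filed as 10 mM, unlikely as a test dose, so the dose is not known. Higher reads as stronger inhibition (inferred: compounds with an IC50 in retests scored well above the rest). About 69,000 compounds were tested under these conditions; 1.4% (about 930) showed 50% or more at least once.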
B: 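Methionyl-tRNA synthetase (putative), Leishmania donovani (UniProt E9BF75). Primary screen of methionyl-tRNA synthetase; the read-out is not stated. The test concentration is not given. Values are per cent inhibition. Of about 68,000 compounds tested this way, about 24 (0.035%) reached 50% or more in at least one test.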
C: 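Whole-cell assay for inhibitors of Mycobacterium tuberculosis growth, labelled Cornell in the record; the read-out is not stated. The concentration is filed as 10 mM, unlikely as a test dose, so the dose is not known. Higher means stronger inhibition (inferred from two other growth screens of the library). Size under these conditions: about 53,000 compounds, about 900 of them at 50% or above in at least one test.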

SMILES,A,B,C
COCC(=O)Nc1ccnc(OCCN(C)C)c1,-0.3251%,4.735%,-51.64%
CCC(C(=O)NCCc1nc(C)cc(C(F)(F)F)n1)n1cccn1 (stereo unspecified),11.89%,6.349%,-40.59%
CC(NC(=O)Cn1cccn1)c1ccc2c(c1)OCCO2 (stereo unspecified),-1.969%,13.96%,-59%
CC(Oc1ccc(OCc2ncc(C(C)C)o2)cc1)C(N)=O (stereo unspecified),15.83%,10.37%,30.95%
O=C(O)C(F)(F)F.O=C(O)C(F)(F)F.[H][C@@]12COC[C@]1(CN(C)C)CN(Cc1ccc3c(c1)OCO3)C2,27.38%,-,-33.93%
COCCNC(=O)Cn1cc(NC(=O)c2ccc(C(C)(C)C)cc2)cn1,-6.592%,2.687%,-17.22%
COc1cccc(C2CC(=O)Nc3nc(N4CCOCC4)sc32)c1OC (stereo unspecified),4.962%,11.97%,84.05%
CNC(=O)c1cc(C2CCCN2)n[nH]1.Cl (stereo unspecified),10.86%,-,8.886%
O=C1CCC(=O)N1CCN1CCOC(c2ccsc2)C1 (stereo unspecified),-34.08%,13.61%,16.01%
CN(C)C1CCN(C(=O)c2ccnn2-c2ccc3ccccn23)CC1,-,11.89%,-
Cc1ccc(NC2CCN(C(=O)c3cc(C)sc3C)CC2)nn1,-5.097%,18.21%,12.63%
CN(C)C(=O)CN1CCOCC2(CCN(CC3CCOCC3)CC2)C1,-,5.882%,-
CCCN(CC1COc2ccccc2O1)C(=O)c1ncoc1CC (stereo unspecified),-3.749%,3.237%,36.95%
N#Cc1ccccc1CN1CCC2(CC1)CC(c1ccccc1)C(=O)N2 (stereo unspecified),-26.33%,10.08%,-21.66%
CS(=O)(=O)NCc1cc(-c2cc(F)cc(F)c2)nc(N2CCCC2)n1,-7.287%,13.35%,-18.28%
CC1COCCN1C(=O)NCCn1ccnc1 (stereo unspecified),0.7849%,12.05%,3.915%
COC(C)(C)CC(C)NCc1cn2ccccc2n1 (stereo unspecified),-8.605%,12.11%,1.869%
Cn1ccnc1C(=O)N1CCC2(CCN2CC2CC2)C1.O=C(O)C(F)(F)F (stereo unspecified),-9.516%,-,-19.41%
CCN(CC)C(=O)c1ccc(-n2ncc(C#N)c2N)cc1,-10.51%,7.104%,-
CN(CCOc1cccc(CNC(=O)C2CC2)c1)C1CCOCC1,-2.85%,11.23%,-
CCCn1ncc(C(=O)N2CCN([C@H]3CCCC[C@@H]3O)CC2)c1C,-10.63%,2.055%,1.537%
Cc1cccc(C)c1NC(=O)CCNC(=O)c1ccoc1,2.011%,11.11%,-
Cc1cccc(CN2CCc3onc(CO)c3C2)n1.O=C(O)C(F)(F)F,23.92%,-,-1.716%
CSCC(CCO)Nc1cccc(C(F)(F)F)n1 (stereo unspecified),-22.61%,11.72%,-
Cc1ccc(C(=O)N2CCC3(CCCN(c4ncc(F)cn4)C3)C2)cn1 (stereo unspecified),-,18.6%,-
O=C(O)C(F)(F)F.[H][C@@]12CCN(C3CCOCC3)C[C@]1([H])O[C@H](C(=O)N1CCCC1)C2,-16.82%,-,-
O=C(O)C(F)(F)F.[H][C@@]12CCCO[C@]1([H])[C@H](NC(=O)c1cscn1)CN2Cc1cccs1,-33.36%,-,17.96%
O=C(NCCSc1ccccc1)[C@H]1CNC[C@@H](C(=O)N2CCOCC2)C1,6.512%,10.23%,-63.2%
O=C(c1ccnnc1)N1CCCn2nnc(COCC3CC3)c2C1,3.938%,5.226%,-29.28%
O=C(NCc1cnc2n1CCN(CC1CCOCC1)C2)c1ccno1,-,-1.12%,-
CCN1CCN(C2CCN(Cc3nc4ccccc4o3)CC2)C1=O,2.531%,11.81%,-
CCOc1cccc(C(=O)N(CCC#N)Cc2ccccn2)c1,-24.8%,5.836%,7.108%
Cc1cncc(C2CCCN2CCO)n1 (stereo unspecified),20.37%,15.19%,4.612%
Cn1nc(CN2CCCC2)c2c1CN(CC1CC1)CC2,-,6.011%,-
Cc1cnc(CN2CCCC2c2noc(C)n2)cn1 (stereo unspecified),9.03%,10.49%,-
Cc1nn(C)c2nc(N(CCN(C)C)CC3CCCO3)sc12 (stereo unspecified),-32.29%,11.56%,-2.574%
CC(CN1CCOCC1)NC1CCN(Cc2cccc(O)c2)CC1 (stereo unspecified),-37.72%,10.61%,16%
O=C1O[C@@H]2CN(c3ccccn3)C[C@@H]2N1CCCc1ccc(F)cc1,-,6.452%,-
CCn1cnnc1CNC(=O)N1CCN(c2ccc(OC)cc2)CC1,-17.61%,7.692%,-32.07%
Cc1nn(C)cc1-c1cc(C(=O)N2CCc3ncc(Cl)cc3C2)no1,17.96%,12.73%,-33.14%
Cc1ccc2c(c1)cc(CN1CC[C@](C)(O)[C@H](C)C1)n2C,-0.3912%,11.38%,9.994%
CC(Cc1ccco1)NS(=O)(=O)N1CCCCC1 (stereo unspecified),13.67%,10.31%,35.85%
O=C1OCCN1Cc1cccc(C(F)(F)F)c1F,11.35%,5.882%,12.84%
CN1CCOC(C(=O)Nc2nc(-c3ccccc3F)n[nH]2)C1 (stereo unspecified),5.049%,10.86%,18.51%
CC(C)NC(=O)C1CN(C(=O)N(C)C)CC12CCOCC2 (stereo unspecified),5.34%,19.22%,11.28%
CC(C)N1[C@H](Cn2cccn2)C[C@@H]2CN(Cc3ccoc3)CC[C@@H]21,-,12.32%,-

For reference, 4 entries once more:

- Cc1nn(C)cc1-c1cc(C(=O)N2CCc3ncc(Cl)cc3C2)no1 : A: 17.96%; B: 12.73%; C: -33.14%
- CN(C)C(=O)CN1CCOCC2(CCN(CC3CCOCC3)CC2)C1 : B: 5.882%
- CS(=O)(=O)NCc1cc(-c2cc(F)cc(F)c2)nc(N2CCCC2)n1 : A: -7.287%; B: 13.35%; C: -18.28%
- O=C(O)C(F)(F)F.[H][C@@]12CCN(C3CCOCC3)C[C@]1([H])O[C@H](C(=O)N1CCCC1)C2 : A: -16.82%

From ChEMBL document CHEMBL3988442, “University of Dundee, Small-Polar-MMV Screening Library” (2021).